Patent US20220144895A1, “DE NOVO DESIGN OF TUNABLE PH-DRIVEN CONFORMATIONAL SWITCHES” (University of Washington, priority 2019, published 2022)
Numbering of substitutions follows the chain as printed. In names and notes the source's numbering stands. Some compounds share one wording; it may come from a single statement.

B1: pRO-4: designed heterodimer, SEQ ID NO: 27-28, chains 81 and 82 (protein)
chain 1: MDEEDHLKKLKTHLEKLERHLKLLEDHAKKLEDILKERPEDSAVKESIDELRRSIELVRESIEIFRQSVEEEEGSSHHHHHHSSGENLYFQGDVKELTKILDTLTKILETATKVIKDATKLLEEHRKSDKPDPRLIETHKKLVEEHETLVRQHKELAEEHLKRTR
chain 2: MDEEDHLKKLKTHLEKLERHLKLLEDHAKKLEDILKERPEDSAVKESIDELRRSIELVRESIEIFRQSVEEEEGDVKELTKILDTLTKILETATKVIKDATKLLEEHRKSDKPDPRLIETHKKLVEEHETLVRQHKELAEEHLKRTR
chain 3: MDEEDHLKKLKTHLEKLERHLKLLEDHAKKLEDILKERPEDSAVKESIDELRRSIELVRESIEIFRQSVEEEE
chain 4: GSSHHHHHHSSGENLYFQGDVKELTKILDTLTKILETATKVIKDATKLLEEHRKSDKPDPRLIETHKKLVEEHETLVRQHKELAEEHLKRTR
modifications: Synthetic polpypeptide; (1)..(18) Optional residues
B2: pRO-5: designed heterodimer, SEQ ID NO: 31-32, 85-86 (protein)
chain 1: MTKEDILERQRKIIERAQEIHRRQQEILKEQEKIIRKPGSSEEAMKRSLKLIEESLRLLKELLELSEESAQLLYEQRGSSHHHHHHSSGENLYFQGTEKRLLEEAERAHREQKEIIKKAQELHKELTKIHQQSGSSEEAKKRALKISQEIRELSKRSLELLREILYLSQEQK
chain 2: MTKEDILERQRKIIERAQEIHRRQQEILKEQEKIIRKPGSSEEAMKRSLKLIEESLRLLKELLELSEESAQLLYEQRGTEKRLLEEAERAHREQKEIIKKAQELHKELTKIHQQSGSSEEAKKRALKISQEIRELSKRSLELLREILYLSQEQK
chain 3: MTKEDILERQRKIIERAQEIHRRQQEILKEQEKIIRKPGSSEEAMKRSLKLIEESLRLLKELLELSEESAQLLYEQR
chain 4: GSSHHHHHHSSGENLYFQGTEKRLLEEAERAHREQKEIIKKAQELHKELTKIHQQSGSSEEAKKRALKISQEIRELSKRSLELLREILYLSQEQK
modifications: Synthetic polpypeptide; (1)..(18) Optional residues
B3: pRO-3: designed homotrimer, SEQ ID NO: 23-24 (protein)
chain 1: MGSHHHHHHGSGSENLYFQGSEALYELEKALRELKKATAALERATAELKKNPSEDALVEHNRLIAAHNKIIAEVLRIIAKVLK
chain 2: GSEALYELEKALRELKKATAALERATAELKKNPSEDALVEHNRLIAAHNKIIAEVLRIIAKVLK
B4: pRO-3.1: pRO-3 variant, SEQ ID NO: 25-26 (protein)
chain 1: B3 chain 1 with L31T, A39D, A40E, A46E, K49E, A66E, V74H, L75N
chain 2: B3 chain 2 with L12T, A20D, A21E, A27E, K30E, A47E, V55H, L56N
B5: pRO-2 A54M: pRO-2 mutant, SEQ ID NO: 19-20 (protein)
chain 1: MGSHHHHHHGSGSENLYFQGSEYEIRKALEELKAATAELKRATASLRAITEELKKNPSEDALVEHNRAIVEHNMIIVEHNRIIAAVLELIVRAIK
chain 2: GSEYEIRKALEELKAATAELKRATASLRAITEELKKNPSEDALVEHNRAIVEHNMIIVEHNRIIAAVLELIVRAIK
B6: pRO-2.5: pRO-2 variant, SEQ ID NO: 11-12 (protein)
chain 1: B5 chain 1 with A35S, I49S, H65N, A68L, M74A, H79N
chain 2: SEYEIRKALEELKASTAELKRATASLRASTEELKKNPSEDALVENNRLIVEHNAIIVENNRIIAAVLELIVRAIK
B7: pRO-2.3: pRO-2 variant, SEQ ID NO: 7-8 (protein)
chain 1: B5 chain 1 with A35S, M74A, H79N
chain 2: B6 chain 2 with S29I, N45H, L48A
B8: pRO-2.1: pRO-2 variant, SEQ ID NO: 3-4 (protein)
chain 1: B5 chain 1 with T36L, M74A, H79V, N80L
chain 2: B6 chain 2 with S15A, T16L, S29I, N45H, L48A, N59V, N60L
B9: pRO-2 I56V: pRO-2 mutant, SEQ ID NO: 17-18 (protein)
chain 1: B5 chain 1 with M74A, I76V
chain 2: B5 chain 2 with M55A, I57V
B10: pRO-2: designed pH-responsive homotrimer, SEQ ID NO: 1-2 (protein)
chain 1: B5 chain 1 with M74A
chain 2: B6 chain 2 with S15A, S29I, N45H, L48A, N59H
B11: pRO-2.4: pRO-2 variant, SEQ ID NO: 9-10 (protein)
chain 1: B5 chain 1 with I49S, H65N, A68L, M74A
chain 2: B6 chain 2 with S15A, N59H

Test: Native mass spectrometry of pH-induced changes in oligomeric state
Format: physicochemical
Settings: native MS at indicated pH
Protocol: Samples were buffer exchanged twice into 200 mM ammonium acetate (NH4Ac; MilliporeSigma) using Micro Bio-Spin P-6 columns (Bio-Rad). Protein concentrations were determined by UV absorbance using a Nanodrop 2000c spectrophotometer (Thermo Fisher Scientific) and diluted to make up a 10-fold stock solution (50 μM and 16.7 μM monomer and trimer concentration, respectively). 1 μL of this solution was mixed with 9 μL 200 mM NH4Ac/50 mM triethylammonium acetate (TEAA; MilliporeSigma), adjusted with acetic acid (Fisher Scientific) to obtain the desired final pH and incubated on ice for 30 min. […] 5 μL samples were filled into an in-house pulled glass capillary and ionized by nESI at a monomer or a trimer concentration of 5 μM or 1.67 μM respectively. All pH titration data were acquired on an in-house modified SYNAPT® G2 HDMS (Waters Corporation) with a surface-induced dissociation (SID) device incorporated between a truncated trap traveling wave ion guide and the ion mobility cell (39). The following instrument parameters were used spray voltage 0.9-1.3 kV; sampling cone, 20 V; extraction cone, 2 V; source temperature, room temperature; trap gas flow, 4 mL/min; trap bins, 45V. The data were processed with MassLynx™ v4.1 and DriftScope™ v2.1. For relative quantification, charge state series were extracted from DriftScope™, and smoothed spectra (mean; window 20; number of smooths 20) were integrated.
Python scripts were written to generate theoretical models according Equation 1, and curve-fitting to native mass spectrometry data (FIGS. 1, 3, 5) according to Equation 2 by nonlinear least squares using curve fit from scipy.optimize. The free energy estimates for individual n, m, and l layers used in Equation 1 modeling were estimated by solving linear equations as follows: values for the free energy of folding for designs pRO-2 and variants were estimated from GdmCl denaturation experiments (FIG. 11); each of these designs have different numbers of n, m, and l layers, thus series of linear equations relating the number of each layer type to the total free energies of folding were solved to estimate dG values of the individual layers of each type.

Molecule	dissociation pathway / intermediates during pH-induced disassembly
B1	predominantly directly dissociate into monomer at low pH
B2	predominantly directly dissociate into monomer at low pH
B3	disassemble via tetramer as intermediate
B4	disassemble via tetramer as intermediate
B5	disassemble via tetramer as intermediate
B6	directly dissociate into monomer at low pH
B7	forms multiple higher-order oligomers besides tetramer at low pH prior to dissociation into monomer
B8	disassemble via tetramer as intermediate
B9	disassemble via tetramer as intermediate
B10	disassemble via tetramer as intermediate
B11	disassemble via tetramer as intermediate
